Results taken from paper doi:10.1101/2020.01.12.903369.
These are yes or no findings as the source states them, for the method shown. In cells and extracts the contact can be indirect. Some entries that bind do so weakly or less than the wild type.

Columns and labels:
Test in all cases: co-IP
Settings in all cases: remark: other sources report otherwise
[1] = molecular target: MCL1 (human (endogenous in LNCaP)), Q07820
[2] = molecular target: MCL1 (human (endogenous in LNCaP)), Q07820; remark: listed apart in the source
[3] = molecular target: HA-tagged MCL1, Q07820

Measured: binding

B1: NOXA, Q13794 1-54 (protein)
chain: MPGKKARKNAQPSPARAPAELEVECATQLRRFGDKLNFRQKLLNLISKLFCSGT
binds: all assays above
